The list shows a part of the results. The data scatter; read single values as rough.
Compound: ClCC(=O)N[C@H]1CCCc2ccccc12
Assay: log2 mean competition ratio of IA-DTB cysteine labelling (DMSO/compound) (log2 ratio); higher = stronger cysteine engagement by compound
Details: 50 µM; treatment time: 4 h; cell line lysate: HEK293T
Protocol: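 IA-DTB competitive cysteine chemoproteomics in HEK293T RIPA lysate. Lysates were treated with compound 29 or 30 at 50 or 200 µM for 4 h, then IA-DTB (500 µM, 1 h), trypsin-digested, NeutrAvidin-enriched and analysed by diaPASEF. Competition ratio = intensity DMSO / intensity compound (n=4 treated, n=64 DMSO); binding: mean log2 CR ≥ 1 and p ≤ 0.05 plus QC filters. Target is the cysteine site.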

Sequences of proteins named here, by UniProt entry; tags and fusion partners are left off. A change or cut given only in a name is not applied to a line headed by its entry. Residues count along the entry.
UniProt Q96GS4, 168-193: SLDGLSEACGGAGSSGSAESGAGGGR
UniProt P38398: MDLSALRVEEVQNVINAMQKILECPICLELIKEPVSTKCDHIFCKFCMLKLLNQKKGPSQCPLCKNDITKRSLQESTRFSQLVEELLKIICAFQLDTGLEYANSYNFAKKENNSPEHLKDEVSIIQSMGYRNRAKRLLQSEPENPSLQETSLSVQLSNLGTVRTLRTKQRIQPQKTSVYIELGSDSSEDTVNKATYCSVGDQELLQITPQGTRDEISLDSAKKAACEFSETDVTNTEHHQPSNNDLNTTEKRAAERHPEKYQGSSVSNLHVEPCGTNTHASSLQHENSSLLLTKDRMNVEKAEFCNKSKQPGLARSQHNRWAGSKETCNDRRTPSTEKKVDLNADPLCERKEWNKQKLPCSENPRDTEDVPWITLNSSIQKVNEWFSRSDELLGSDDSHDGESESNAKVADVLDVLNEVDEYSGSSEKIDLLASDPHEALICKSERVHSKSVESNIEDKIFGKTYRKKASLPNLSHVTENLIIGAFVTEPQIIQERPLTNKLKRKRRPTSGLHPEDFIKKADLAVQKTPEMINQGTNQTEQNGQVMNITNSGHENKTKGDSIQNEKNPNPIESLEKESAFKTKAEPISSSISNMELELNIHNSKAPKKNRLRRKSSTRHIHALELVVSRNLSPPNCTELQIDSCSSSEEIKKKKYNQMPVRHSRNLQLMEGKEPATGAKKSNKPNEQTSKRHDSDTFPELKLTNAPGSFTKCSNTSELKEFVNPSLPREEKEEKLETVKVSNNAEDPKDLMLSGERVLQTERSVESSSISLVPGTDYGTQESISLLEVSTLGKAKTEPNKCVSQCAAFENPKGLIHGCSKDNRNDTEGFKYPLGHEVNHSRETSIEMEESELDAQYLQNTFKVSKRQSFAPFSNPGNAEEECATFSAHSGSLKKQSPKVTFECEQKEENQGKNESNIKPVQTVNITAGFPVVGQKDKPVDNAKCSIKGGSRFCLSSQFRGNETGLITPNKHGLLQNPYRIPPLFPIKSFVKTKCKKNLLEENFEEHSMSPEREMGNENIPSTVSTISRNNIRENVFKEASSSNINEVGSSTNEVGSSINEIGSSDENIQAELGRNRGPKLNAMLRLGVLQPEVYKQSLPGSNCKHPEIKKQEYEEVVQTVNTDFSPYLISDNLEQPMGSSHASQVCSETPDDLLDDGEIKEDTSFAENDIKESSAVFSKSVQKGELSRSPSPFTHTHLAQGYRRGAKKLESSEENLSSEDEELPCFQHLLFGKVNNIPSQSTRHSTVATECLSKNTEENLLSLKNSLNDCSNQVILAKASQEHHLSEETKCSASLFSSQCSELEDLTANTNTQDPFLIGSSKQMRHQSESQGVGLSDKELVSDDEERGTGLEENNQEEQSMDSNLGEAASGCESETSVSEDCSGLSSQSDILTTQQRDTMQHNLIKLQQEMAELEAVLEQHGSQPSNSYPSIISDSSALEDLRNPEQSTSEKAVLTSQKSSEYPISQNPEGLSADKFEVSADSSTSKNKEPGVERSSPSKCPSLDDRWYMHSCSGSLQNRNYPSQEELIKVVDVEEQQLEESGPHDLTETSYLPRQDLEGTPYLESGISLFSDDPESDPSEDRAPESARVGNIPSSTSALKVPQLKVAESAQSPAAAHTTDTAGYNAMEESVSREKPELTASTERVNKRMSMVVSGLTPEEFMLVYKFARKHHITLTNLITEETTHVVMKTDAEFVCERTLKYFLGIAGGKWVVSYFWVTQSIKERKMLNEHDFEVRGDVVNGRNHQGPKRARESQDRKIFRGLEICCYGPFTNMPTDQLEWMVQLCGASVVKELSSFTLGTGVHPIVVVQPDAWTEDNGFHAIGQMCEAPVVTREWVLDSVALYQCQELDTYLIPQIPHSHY
UniProt Q53S33: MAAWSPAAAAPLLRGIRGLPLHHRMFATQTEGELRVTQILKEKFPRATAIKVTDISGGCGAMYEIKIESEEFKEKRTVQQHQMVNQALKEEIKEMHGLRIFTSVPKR
UniProt Q7Z569: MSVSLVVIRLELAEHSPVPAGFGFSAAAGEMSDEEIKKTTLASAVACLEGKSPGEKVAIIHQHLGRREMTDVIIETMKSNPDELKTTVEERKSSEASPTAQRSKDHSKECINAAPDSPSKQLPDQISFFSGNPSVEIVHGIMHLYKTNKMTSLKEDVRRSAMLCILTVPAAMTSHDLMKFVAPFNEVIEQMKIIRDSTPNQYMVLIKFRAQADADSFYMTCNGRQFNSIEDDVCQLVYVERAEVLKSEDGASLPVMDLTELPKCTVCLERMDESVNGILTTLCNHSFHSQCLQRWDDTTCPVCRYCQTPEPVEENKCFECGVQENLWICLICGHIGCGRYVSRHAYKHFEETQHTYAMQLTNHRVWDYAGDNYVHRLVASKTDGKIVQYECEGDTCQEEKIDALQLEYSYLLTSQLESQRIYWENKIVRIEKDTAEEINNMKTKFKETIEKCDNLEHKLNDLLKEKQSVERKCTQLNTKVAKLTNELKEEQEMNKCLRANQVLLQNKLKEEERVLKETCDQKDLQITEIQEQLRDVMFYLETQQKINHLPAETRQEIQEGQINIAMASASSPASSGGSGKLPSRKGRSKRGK
UniProt Q08AD1: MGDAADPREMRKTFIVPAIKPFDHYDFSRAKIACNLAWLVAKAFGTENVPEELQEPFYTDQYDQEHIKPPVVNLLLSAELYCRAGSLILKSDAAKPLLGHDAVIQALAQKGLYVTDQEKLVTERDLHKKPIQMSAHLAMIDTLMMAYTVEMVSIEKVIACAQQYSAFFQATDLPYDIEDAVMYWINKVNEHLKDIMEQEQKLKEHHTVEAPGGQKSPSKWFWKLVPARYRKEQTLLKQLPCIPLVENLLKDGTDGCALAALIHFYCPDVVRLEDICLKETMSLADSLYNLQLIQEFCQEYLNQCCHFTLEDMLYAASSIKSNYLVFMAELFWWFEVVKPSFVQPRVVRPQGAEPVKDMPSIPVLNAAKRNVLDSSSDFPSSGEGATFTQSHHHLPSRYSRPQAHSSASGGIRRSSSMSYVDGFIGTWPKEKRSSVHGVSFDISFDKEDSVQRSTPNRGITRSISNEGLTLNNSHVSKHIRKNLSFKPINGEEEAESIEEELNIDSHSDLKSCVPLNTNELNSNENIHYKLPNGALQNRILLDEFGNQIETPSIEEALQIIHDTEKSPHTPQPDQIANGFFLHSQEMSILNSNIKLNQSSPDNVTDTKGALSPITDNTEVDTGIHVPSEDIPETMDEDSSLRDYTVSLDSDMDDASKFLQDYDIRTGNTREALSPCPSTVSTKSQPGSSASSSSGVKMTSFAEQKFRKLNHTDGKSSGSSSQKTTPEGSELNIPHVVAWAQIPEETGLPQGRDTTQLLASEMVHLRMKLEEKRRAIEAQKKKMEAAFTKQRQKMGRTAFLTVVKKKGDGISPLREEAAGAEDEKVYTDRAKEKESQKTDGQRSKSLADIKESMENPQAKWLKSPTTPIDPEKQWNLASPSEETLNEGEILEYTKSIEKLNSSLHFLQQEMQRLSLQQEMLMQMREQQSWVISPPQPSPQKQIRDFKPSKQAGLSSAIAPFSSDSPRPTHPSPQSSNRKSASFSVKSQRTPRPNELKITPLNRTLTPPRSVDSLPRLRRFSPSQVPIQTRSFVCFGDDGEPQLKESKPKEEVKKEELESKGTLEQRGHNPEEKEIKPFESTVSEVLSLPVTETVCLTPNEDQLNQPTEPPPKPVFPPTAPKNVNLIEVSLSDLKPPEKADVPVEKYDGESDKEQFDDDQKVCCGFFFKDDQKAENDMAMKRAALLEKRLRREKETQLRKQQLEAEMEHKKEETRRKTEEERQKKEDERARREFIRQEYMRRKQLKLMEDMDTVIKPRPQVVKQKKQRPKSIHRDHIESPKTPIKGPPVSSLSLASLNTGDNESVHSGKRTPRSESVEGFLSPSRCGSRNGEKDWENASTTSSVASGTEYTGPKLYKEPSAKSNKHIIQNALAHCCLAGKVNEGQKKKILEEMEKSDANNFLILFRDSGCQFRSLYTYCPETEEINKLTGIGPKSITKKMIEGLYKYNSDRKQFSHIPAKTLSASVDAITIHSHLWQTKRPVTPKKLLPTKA
UniProt Q9Y6E2: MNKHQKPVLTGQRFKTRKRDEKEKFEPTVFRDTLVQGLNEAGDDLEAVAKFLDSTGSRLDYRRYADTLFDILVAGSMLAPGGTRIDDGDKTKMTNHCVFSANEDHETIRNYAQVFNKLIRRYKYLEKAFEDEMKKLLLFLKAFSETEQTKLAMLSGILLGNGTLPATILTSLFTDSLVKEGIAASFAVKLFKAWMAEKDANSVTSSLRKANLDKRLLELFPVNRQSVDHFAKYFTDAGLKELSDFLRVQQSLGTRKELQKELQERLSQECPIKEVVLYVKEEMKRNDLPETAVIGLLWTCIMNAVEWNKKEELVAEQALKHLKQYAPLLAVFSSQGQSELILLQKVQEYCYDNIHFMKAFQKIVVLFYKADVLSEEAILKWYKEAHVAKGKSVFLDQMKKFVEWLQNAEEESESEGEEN
UniProt Q5T5Y3: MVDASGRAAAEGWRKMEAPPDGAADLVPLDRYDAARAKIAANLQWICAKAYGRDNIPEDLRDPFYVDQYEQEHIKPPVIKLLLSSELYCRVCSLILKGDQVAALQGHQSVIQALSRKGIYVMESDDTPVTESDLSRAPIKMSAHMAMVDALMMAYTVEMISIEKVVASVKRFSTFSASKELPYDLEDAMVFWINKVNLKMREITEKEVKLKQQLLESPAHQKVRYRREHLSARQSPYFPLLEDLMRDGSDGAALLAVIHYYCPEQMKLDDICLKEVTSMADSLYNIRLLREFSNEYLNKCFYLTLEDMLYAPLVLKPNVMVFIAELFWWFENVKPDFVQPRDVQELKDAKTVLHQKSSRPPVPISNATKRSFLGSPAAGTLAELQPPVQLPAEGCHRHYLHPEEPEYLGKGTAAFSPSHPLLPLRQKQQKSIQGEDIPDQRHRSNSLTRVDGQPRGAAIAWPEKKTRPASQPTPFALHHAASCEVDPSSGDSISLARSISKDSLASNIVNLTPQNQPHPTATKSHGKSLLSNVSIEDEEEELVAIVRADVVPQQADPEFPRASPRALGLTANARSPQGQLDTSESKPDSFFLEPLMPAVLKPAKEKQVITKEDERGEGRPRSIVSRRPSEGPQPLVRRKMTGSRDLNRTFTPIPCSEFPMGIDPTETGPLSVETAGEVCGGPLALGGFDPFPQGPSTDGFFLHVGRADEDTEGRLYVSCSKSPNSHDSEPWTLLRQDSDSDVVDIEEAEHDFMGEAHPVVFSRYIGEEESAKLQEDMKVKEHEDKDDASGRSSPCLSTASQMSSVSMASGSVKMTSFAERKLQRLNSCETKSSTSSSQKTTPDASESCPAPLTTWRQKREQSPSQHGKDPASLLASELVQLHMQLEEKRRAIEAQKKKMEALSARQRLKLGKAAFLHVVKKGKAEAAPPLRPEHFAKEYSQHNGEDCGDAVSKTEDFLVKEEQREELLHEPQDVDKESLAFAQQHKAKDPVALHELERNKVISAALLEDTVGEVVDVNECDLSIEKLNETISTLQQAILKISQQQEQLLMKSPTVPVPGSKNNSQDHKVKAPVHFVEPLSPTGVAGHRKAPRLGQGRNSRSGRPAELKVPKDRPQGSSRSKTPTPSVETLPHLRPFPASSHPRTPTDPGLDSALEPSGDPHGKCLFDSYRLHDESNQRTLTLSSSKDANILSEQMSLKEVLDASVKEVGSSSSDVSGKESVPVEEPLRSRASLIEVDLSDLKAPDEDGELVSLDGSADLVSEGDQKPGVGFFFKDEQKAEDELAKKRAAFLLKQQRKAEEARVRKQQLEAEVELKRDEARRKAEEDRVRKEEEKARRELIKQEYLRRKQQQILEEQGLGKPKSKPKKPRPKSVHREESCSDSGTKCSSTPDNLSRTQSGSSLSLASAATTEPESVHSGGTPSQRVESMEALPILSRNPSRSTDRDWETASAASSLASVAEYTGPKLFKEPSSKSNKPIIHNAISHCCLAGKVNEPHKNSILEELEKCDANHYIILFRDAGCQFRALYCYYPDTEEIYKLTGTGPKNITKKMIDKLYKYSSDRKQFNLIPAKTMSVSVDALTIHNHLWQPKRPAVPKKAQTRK
UniProt Q8TDN6: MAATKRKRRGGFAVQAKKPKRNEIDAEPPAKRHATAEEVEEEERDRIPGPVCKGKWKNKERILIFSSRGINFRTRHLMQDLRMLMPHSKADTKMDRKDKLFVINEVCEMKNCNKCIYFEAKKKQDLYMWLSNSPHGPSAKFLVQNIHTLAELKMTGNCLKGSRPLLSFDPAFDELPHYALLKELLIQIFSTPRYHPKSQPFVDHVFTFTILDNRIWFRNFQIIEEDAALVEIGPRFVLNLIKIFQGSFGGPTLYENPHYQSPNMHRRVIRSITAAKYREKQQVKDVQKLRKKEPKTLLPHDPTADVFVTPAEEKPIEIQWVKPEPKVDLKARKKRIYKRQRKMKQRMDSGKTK

| Target | log2 mean competition ratio |
| --- | --- |
| CADPS2 C218 | -0.485 |
| BORCS6 C176 (UniProt Q96GS4) | -0.00514 |
| BRCA1 C1270 (UniProt P38398) | 0.293 |
| BPTF C445 | -0.583 |
| CAPN7 C242 (UniProt Q9Y6W3) | 0.056 |
| BORA C526 (UniProt Q6PGQ7) | -0.396 |
| BUB1B C775 (UniProt O60566) | 0.243 |
| BOLA3 C59 (UniProt Q53S33) | 0.116 |
| BRIP1 C125 (UniProt Q9BX63) | -0.253 |
| BRAP C47 (UniProt Q7Z569) | -0.632 |
| CAMSAP2 C512 (UniProt Q08AD1) | 0.165 |
| BZW2 C350 (UniProt Q9Y6E2) | -0.188 |
| CAMSAP1 C272 (UniProt Q5T5Y3) | -0.0769 |
| C15orf39 C50 (UniProt Q6ZRI6) | 0.17 |
| C15orf61 C84 | -0.108 |
| BOD1L1 C2438 (UniProt Q8NFC6) | 0.149 |
| BRAT1 C487 (UniProt Q6PJG6) | -0.27 |
| BPTF C1241 | 0.00353 |
| BRIX1 C52 (UniProt Q8TDN6) | 0.132 |
| C1orf21 C114 | -0.0932 |

Same assay, conditions: 200 µM; treatment time: 4 h; cell line lysate: HEK293T

| Target | log2 mean competition ratio |
| --- | --- |
| CADPS2 C218 | -0.0145 |
| BORCS6 C176 (UniProt Q96GS4) | -0.171 |
| BRCA1 C1270 (UniProt P38398) | -0.11 |
| BPTF C445 | 0.00392 |
| CAPN7 C242 (UniProt Q9Y6W3) | -0.171 |
| BORA C526 (UniProt Q6PGQ7) | -0.676 |
| BUB1B C775 (UniProt O60566) | -0.124 |
| BOLA3 C59 (UniProt Q53S33) | -0.072 |
| BRIP1 C125 (UniProt Q9BX63) | -0.455 |
| BRAP C47 (UniProt Q7Z569) | -0.0127 |
| CAMSAP2 C512 (UniProt Q08AD1) | -0.0761 |
| BZW2 C350 (UniProt Q9Y6E2) | -0.455 |
| CAMSAP1 C272 (UniProt Q5T5Y3) | 0.115 |
| C15orf39 C50 (UniProt Q6ZRI6) | 0.0799 |
| C15orf61 C84 | -0.0455 |
| BOD1L1 C2438 (UniProt Q8NFC6) | -0.123 |
| BRAT1 C487 (UniProt Q6PJG6) | 0.25 |
| BPTF C1241 | 0.183 |
| BRIX1 C52 (UniProt Q8TDN6) | -0.117 |
| C1orf21 C114 | 0.104 |
